# Assay results published in the supplement of paper PMC8728848.
# Some of the results follow.
# How the values were obtained:
# Test in all cases: glycan array binding signal (z-score within array); higher = stronger binding
# Conditions in all cases: glycan notation: IUPAC condensed, linker removed
# [1] = molecular target: Neu5Ac(a2-6)Gal(b1-4)GlcNAc(b1-2)Man(a1-3)[Man(a1-6)]Man(b1-4)GlcNAc(b1-4)GlcNAc
# Outline: (§1)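 Negative Z-scores can be read as non-binding. The Z-score is calculated within each array and then averaged across arrays of one protein sequence at different concentrations or buffers and across linkers. Arrays, 3228 in all, were curated from the Consortium for Functional Glycomics database and kept only where the protein sequence was available.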
# [2] = molecular target: Neu5Ac(a2-6)Gal(b1-4)GlcNAc(b1-2)Man(a1-3)[Neu5Ac(a2-3)Gal(b1-4)GlcNAc(b1-2)Man(a1-6)]Man(b1-4)GlcNAc(b1-4)GlcNAc
# Outline: as §1
# [3] = molecular target: Neu5Ac(a2-6)Gal(b1-4)GlcNAc(b1-2)Man(a1-3)[Neu5Ac(a2-6)Gal(b1-4)GlcNAc(b1-2)Man(a1-6)]Man(b1-4)GlcNAc(b1-4)GlcNAc
# Outline: as §1
# [4] = molecular target: Neu5Ac(a2-6)Gal(b1-4)GlcNAc(b1-2)Man(a1-3)[Neu5Ac(a2-6)Gal(b1-4)GlcNAc(b1-2)Man(a1-6)]Man(b1-4)GlcNAc(b1-4)[Fuc(a1-6)]GlcNAc
# Outline: as §1
# [5] = molecular target: Neu5Ac(a2-6)Gal(b1-4)GlcNAc(b1-2)Man(a1-6)Man(b1-4)GlcNAc(b1-4)GlcNAc
# Outline: as §1
# [6] = molecular target: Neu5Ac(a2-6)Gal(b1-4)GlcNAc(b1-2)Man(a1-6)[Gal(b1-4)GlcNAc(b1-2)Man(a1-3)]Man(b1-4)GlcNAc(b1-4)GlcNAc
# Outline: as §1
# [7] = molecular target: Neu5Ac(a2-6)Gal(b1-4)GlcNAc(b1-2)Man(a1-6)[GlcNAc(b1-2)Man(a1-3)]Man(b1-4)GlcNAc(b1-4)GlcNAc
# Outline: as §1
# [8] = molecular target: Neu5Ac(a2-6)Gal(b1-4)GlcNAc(b1-2)Man(a1-6)[Man(a1-3)]Man(b1-4)GlcNAc(b1-4)GlcNAc
# Outline: as §1
# [9] = molecular target: Neu5Ac(a2-6)Gal(b1-4)GlcNAc(b1-2)[Neu5Ac(a2-6)Gal(b1-4)GlcNAc(b1-4)]Man(a1-3)[GlcNAc(b1-4)][Neu5Ac(a2-6)Gal(b1-4)GlcNAc(b1-2)[Neu5Ac(a2-6)Gal(b1-4)GlcNAc(b1-6)]Man(a1-6)]Man(b1-4)GlcNAc(b1-4)GlcNAc
# Outline: as §1
# [10] = molecular target: Neu5Ac(a2-6)Gal(b1-4)GlcNAc(b1-2)[Neu5Ac(a2-6)Gal(b1-4)GlcNAc(b1-4)]Man(a1-3)[GlcNAc(b1-4)][Neu5Ac(a2-6)Gal(b1-4)GlcNAc(b1-4)Man(a1-6)]Man(b1-4)GlcNAc(b1-4)GlcNAc
# Outline: as §1
# [11] = molecular target: Neu5Ac(a2-6)Gal(b1-4)GlcNAc(b1-2)[Neu5Ac(a2-6)Gal(b1-4)GlcNAc(b1-6)]Man(a1-6)[Neu5Ac(a2-6)Gal(b1-4)GlcNAc(b1-2)Man(a1-3)][GlcNAc(b1-4)]Man(b1-4)GlcNAc(b1-4)GlcNAc
# Outline: as §1
# [12] = molecular target: Neu5Ac(a2-6)Gal(b1-4)GlcNAc(b1-3)Gal(b1-3)GlcNAc
# Outline: as §1
# [13] = molecular target: Neu5Ac(a2-6)Gal(b1-4)GlcNAc(b1-3)Gal(b1-4)GlcNAc
# Outline: as §1
# [14] = molecular target: Neu5Ac(a2-6)Gal(b1-4)GlcNAc(b1-3)Gal(b1-4)GlcNAc(b1-2)Man(a1-3)[Neu5Ac(a2-6)Gal(b1-4)GlcNAc(b1-3)Gal(b1-4)GlcNAc(b1-2)Man(a1-6)]GalNAc
# Outline: as §1
# [15] = molecular target: Neu5Ac(a2-6)Gal(b1-4)GlcNAc(b1-3)Gal(b1-4)GlcNAc(b1-3)Gal(b1-4)GlcNAc
# Outline: as §1
# [16] = molecular target: Neu5Ac(a2-6)Gal(b1-4)GlcNAc(b1-3)Gal(b1-4)GlcNAc(b1-3)Gal(b1-4)GlcNAc(b1-2)Man(a1-3)[Neu5Ac(a2-6)Gal(b1-4)GlcNAc(b1-3)Gal(b1-4)GlcNAc(b1-3)Gal(b1-4)GlcNAc(b1-2)Man(a1-6)]GalNAc
# Outline: as §1
# [17] = molecular target: Neu5Ac(a2-6)Gal(b1-4)GlcNAc(b1-3)Gal(b1-4)GlcNAc(b1-3)GalNAc
# Outline: as §1
# [18] = molecular target: Neu5Ac(a2-6)Gal(b1-4)GlcNAc(b1-3)Gal(b1-4)GlcNAc(b1-3)[Neu5Ac(a2-6)Gal(b1-4)GlcNAc(b1-3)Gal(b1-4)GlcNAc(b1-6)]GalNAc
# Outline: as §1
# [19] = molecular target: Neu5Ac(a2-6)Gal(b1-4)GlcNAc(b1-3)Gal(b1-4)GlcNAc(b1-6)[Gal(b1-3)]GalNAc
# Outline: as §1
# [20] = molecular target: Neu5Ac(a2-6)Gal(b1-4)GlcNAc(b1-3)Gal(b1-4)[Fuc(a1-3)]GlcNAc(b1-3)Gal(b1-4)[Fuc(a1-3)]GlcNAc
# Outline: as §1
# [21] = molecular target: Neu5Ac(a2-6)Gal(b1-4)GlcNAc(b1-3)GalNAc
# Outline: as §1
# [22] = molecular target: Neu5Ac(a2-6)Gal(b1-4)GlcNAc(b1-3)[Neu5Ac(a2-6)Gal(b1-4)GlcNAc(b1-6)]GalNAc
# Outline: as §1
# [23] = molecular target: Neu5Ac(a2-6)Gal(b1-4)GlcNAc(b1-6)GalNAc
# Outline: as §1
# [24] = molecular target: Neu5Ac(a2-6)Gal(b1-4)GlcNAc(b1-6)[Gal(b1-3)GlcNAc(b1-3)]Gal(b1-4)Glc
# Outline: as §1
# [25] = molecular target: Neu5Ac(a2-6)Gal(b1-4)GlcNAc(b1-6)[Gal(b1-3)]GalNAc
# Outline: as §1
# [26] = molecular target: Neu5Ac(a2-6)Gal(b1-4)GlcNAc6S
# Outline: as §1
# Neu5Ac(a2-6)GalNAc = molecular target: Neu5Ac(a2-6)GalNAc
# Outline: as §1
# [27] = molecular target: Neu5Ac(a2-6)GalNAc(b1-4)GlcNAc
# Outline: as §1
# [28] = molecular target: Neu5Ac(a2-6)GalNAc(b1-4)GlcNAc6S
# Outline: as §1
# [29] = molecular target: Neu5Ac(a2-6)GlcNAc(b1-4)GlcNAc
# Outline: as §1
binder,measurement,setting,value
TAL6-6LysM (Trichoderma atroviride) (protein) AASKLGVPQPAQRDQVNCQLYAVQPNDNCIDISSKNNITYAQLLSWNPSLSSTCSNLASLNSSSICVSNPKGTFSISSNTVGATDIATTTAPVPSPTLDQTTSRCAKYYQVSDGDDCSHLTAQFAITLKDFIFLNSEVWQNCTNLELGYYYCVEPVGYISTYPGYLPTATTKPFNQTSATSLPYDGDPWARFSSNSSVIPIANGTRVDCYSYVYVKNLTENLFADCWNMASMYEITREELVLWNPSLGNDGSSGSNLSGAEASQVASSIAIPTTAPSSITTNLYTYPCTVAANISYCVALVSSTGALPTNTAPPGPHASGEISNCTAWFAPEAYDTCKSILDIFEMSFANFYKMNPSVGPDCSGLAVGTNYCVSTYPNGEDPNDDWDGDDSIPSISPTGIITPTPTQSGMVSNCNKFYDVHSNDGCSAIASSQHVDLSSLYKWNPAIKTDCSGLQASVYVCIGILTTSMSTTSKLPTTTSKPSTTSKPPTGITTPTPTQSGMVKNCNKFYDVHSGDGCSAIASSQKVNLSSFYLWNPAVKTDCSGLQASVFVCIGTLTTSMSTTTSKLPTTTSKPSTTSKPPTGIITPTPTQNGMVKNCNKFYDVHSGDGCSAIASSQKVNLSSFYLWNPAVKTDCSGLQASVFVCVGTATTTTAAGITTPTPTQSGMVSGCNKFYDVHAGDGCSAIASSQKIALSSLYKWNPAVKTDCSGLQASVYICIGVGNAAAARVTGAAASFLEQKLISEEDLNSAVDHHHHHH,glycan array binding signal (z-score),[1],-0.594
same,glycan array binding signal (z-score),[2],-0.013
same,glycan array binding signal (z-score),[3],0.076
same,glycan array binding signal (z-score),[4],-0.891
same,glycan array binding signal (z-score),[5],0.838
same,glycan array binding signal (z-score),[6],0.106
same,glycan array binding signal (z-score),[7],-0.01
same,glycan array binding signal (z-score),[8],-1.41
same,glycan array binding signal (z-score),[9],0.288
same,glycan array binding signal (z-score),[10],-0.829
same,glycan array binding signal (z-score),[11],0.005
same,glycan array binding signal (z-score),[12],-1.1
same,glycan array binding signal (z-score),[13],1.52
same,glycan array binding signal (z-score),[14],1.37
same,glycan array binding signal (z-score),[15],1.28
same,glycan array binding signal (z-score),[16],1.62
same,glycan array binding signal (z-score),[17],-0.317
same,glycan array binding signal (z-score),[18],0.003
same,glycan array binding signal (z-score),[19],-0.387
same,glycan array binding signal (z-score),[20],2.13
same,glycan array binding signal (z-score),[21],-1.09
same,glycan array binding signal (z-score),[22],-0.108
same,glycan array binding signal (z-score),[23],-0.092
same,glycan array binding signal (z-score),[24],-1.03
same,glycan array binding signal (z-score),[25],-0.008
same,glycan array binding signal (z-score),[26],0.283
same,glycan array binding signal (z-score),Neu5Ac(a2-6)GalNAc,-0.325
same,glycan array binding signal (z-score),[27],-0.721
same,glycan array binding signal (z-score),[28],1.99
same,glycan array binding signal (z-score),[29],-0.9

# 2 records drawn at random from the list so far, as already listed:
binder,measurement,setting,value
TAL6-6LysM (Trichoderma atroviride) (protein) AASKLGVPQPAQRDQVNCQLYAVQPNDNCIDISSKNNITYAQLLSWNPSLSSTCSNLASLNSSSICVSNPKGTFSISSNTVGATDIATTTAPVPSPTLDQTTSRCAKYYQVSDGDDCSHLTAQFAITLKDFIFLNSEVWQNCTNLELGYYYCVEPVGYISTYPGYLPTATTKPFNQTSATSLPYDGDPWARFSSNSSVIPIANGTRVDCYSYVYVKNLTENLFADCWNMASMYEITREELVLWNPSLGNDGSSGSNLSGAEASQVASSIAIPTTAPSSITTNLYTYPCTVAANISYCVALVSSTGALPTNTAPPGPHASGEISNCTAWFAPEAYDTCKSILDIFEMSFANFYKMNPSVGPDCSGLAVGTNYCVSTYPNGEDPNDDWDGDDSIPSISPTGIITPTPTQSGMVSNCNKFYDVHSNDGCSAIASSQHVDLSSLYKWNPAIKTDCSGLQASVYVCIGILTTSMSTTSKLPTTTSKPSTTSKPPTGITTPTPTQSGMVKNCNKFYDVHSGDGCSAIASSQKVNLSSFYLWNPAVKTDCSGLQASVFVCIGTLTTSMSTTTSKLPTTTSKPSTTSKPPTGIITPTPTQNGMVKNCNKFYDVHSGDGCSAIASSQKVNLSSFYLWNPAVKTDCSGLQASVFVCVGTATTTTAAGITTPTPTQSGMVSGCNKFYDVHAGDGCSAIASSQKIALSSLYKWNPAVKTDCSGLQASVYICIGVGNAAAARVTGAAASFLEQKLISEEDLNSAVDHHHHHH,glycan array binding signal (z-score),[19],-0.387
same,glycan array binding signal (z-score),[16],1.62
